Results are given in words; binding and its absence hold for the method and conditions named. Some binding calls cover weakened binding; strength is not graded here. Each block holds one binder with its values, some of them ahead of it.
Tests used:
[1] = target: D2.8.11, a peptide epitope for murine 763 (human); assay: SPR (Biacore T-100), D2.8.11-coated chip, composite normalized sensorgram
[2] = target: human chondroitin sulfate proteoglycan 4 (CSPG4) on cells (human) (UniProt Q6UVK1); assay: flow cytometry on CSPG4+ M14 cells after repeated washes with PBS / 2 mM EDTA, FITC goat anti-mouse secondary
[3] = target: human chondroitin sulfate proteoglycan 4 (CSPG4) on cells (human) (UniProt Q6UVK1); assay: IHC, human melanoma tissue sample 2659, 1 µg/mL
[4] = target: human chondroitin sulfate proteoglycan 4 (CSPG4) on cells (human) (UniProt Q6UVK1); assay: IHC, human melanoma tissue sample 2716, 1 µg/mL
[5] = target: human chondroitin sulfate proteoglycan 4 (CSPG4) on cells (human) (UniProt Q6UVK1); assay: IHC, human melanoma tissue sample 2671, 1 µg/mL
[6] = target: human chondroitin sulfate proteoglycan 4 (CSPG4) on cells (human) (UniProt Q6UVK1); assay: FACS on M14 cells, % of MFI of maximum binding (5 µg), FITC goat anti-mouse secondary
[7] = target: human chondroitin sulfate proteoglycan 4 (CSPG4) on cells (human) (UniProt Q6UVK1); assay: IHC, normal human tissue, ileum, 1 µg/mL
[8] = target: human chondroitin sulfate proteoglycan 4 (CSPG4) on cells (human) (UniProt Q6UVK1); assay: IHC, human melanoma tissue sample 2655, 1 µg/mL
[9] = target: human chondroitin sulfate proteoglycan 4 (CSPG4) on cells (human) (UniProt Q6UVK1); assay: IHC, human melanoma tissue sample 2668, 1 µg/mL
[10] = target: human chondroitin sulfate proteoglycan 4 (CSPG4) on cells (human) (UniProt Q6UVK1); assay: flow cytometry on CSPG4+ M14 cells after repeated washes
[11] = target: human chondroitin sulfate proteoglycan 4 (CSPG4) on cells (human) (UniProt Q6UVK1); assay: IHC, human melanoma tissue sample 2657, 1 µg/mL
[12] = target: human chondroitin sulfate proteoglycan 4 (CSPG4) on cells (human) (UniProt Q6UVK1); assay: IHC, normal human tissue, stomach, 1 µg/mL
[13] = target: human chondroitin sulfate proteoglycan 4 (CSPG4) on cells (human) (UniProt Q6UVK1); assay: IHC, human melanoma tissue sample 508, 1 µg/mL
[14] = target: human chondroitin sulfate proteoglycan 4 (CSPG4) on cells (human) (UniProt Q6UVK1); assay: IHC, human melanoma tissue sample 319, 1 µg/mL
[15] = target: human chondroitin sulfate proteoglycan 4 (CSPG4) on cells (human) (UniProt Q6UVK1); assay: IHC, human melanoma tissue sample 2667, 1 µg/mL
[16] = target: human chondroitin sulfate proteoglycan 4 (CSPG4) on cells (human) (UniProt Q6UVK1); assay: IHC, normal human tissue, sigmoid colon, 1 µg/mL
[17] = target: human chondroitin sulfate proteoglycan 4 (CSPG4) on cells (human) (UniProt Q6UVK1); assay: IHC, human melanoma tissue sample 2003, 1 µg/mL
[18] = target: human chondroitin sulfate proteoglycan 4 (CSPG4) on cells (human) (UniProt Q6UVK1); assay: IHC, human melanoma tissue sample 524, 1 µg/mL
[19] = target: human chondroitin sulfate proteoglycan 4 (CSPG4) on cells (human) (UniProt Q6UVK1); assay: IHC, human melanoma tissue sample 2664, 1 µg/mL
[20] = target: human chondroitin sulfate proteoglycan 4 (CSPG4) on cells (human) (UniProt Q6UVK1); assay: IHC, human melanoma tissue sample 2658, 1 µg/mL
[21] = target: human chondroitin sulfate proteoglycan 4 (CSPG4) on cells (human) (UniProt Q6UVK1); assay: IHC, human melanoma tissue sample 2669, 1 µg/mL
[22] = target: human chondroitin sulfate proteoglycan 4 (CSPG4) on cells (human) (UniProt Q6UVK1); assay: IHC, human melanoma tissue sample 2715, 1 µg/mL

Protein sequences, listed by entry. Tags and fused reporters are not part of them. Lines headed by an entry give the natural chain unless they say otherwise; changes in a name come on top.
UniProt Q6UVK1: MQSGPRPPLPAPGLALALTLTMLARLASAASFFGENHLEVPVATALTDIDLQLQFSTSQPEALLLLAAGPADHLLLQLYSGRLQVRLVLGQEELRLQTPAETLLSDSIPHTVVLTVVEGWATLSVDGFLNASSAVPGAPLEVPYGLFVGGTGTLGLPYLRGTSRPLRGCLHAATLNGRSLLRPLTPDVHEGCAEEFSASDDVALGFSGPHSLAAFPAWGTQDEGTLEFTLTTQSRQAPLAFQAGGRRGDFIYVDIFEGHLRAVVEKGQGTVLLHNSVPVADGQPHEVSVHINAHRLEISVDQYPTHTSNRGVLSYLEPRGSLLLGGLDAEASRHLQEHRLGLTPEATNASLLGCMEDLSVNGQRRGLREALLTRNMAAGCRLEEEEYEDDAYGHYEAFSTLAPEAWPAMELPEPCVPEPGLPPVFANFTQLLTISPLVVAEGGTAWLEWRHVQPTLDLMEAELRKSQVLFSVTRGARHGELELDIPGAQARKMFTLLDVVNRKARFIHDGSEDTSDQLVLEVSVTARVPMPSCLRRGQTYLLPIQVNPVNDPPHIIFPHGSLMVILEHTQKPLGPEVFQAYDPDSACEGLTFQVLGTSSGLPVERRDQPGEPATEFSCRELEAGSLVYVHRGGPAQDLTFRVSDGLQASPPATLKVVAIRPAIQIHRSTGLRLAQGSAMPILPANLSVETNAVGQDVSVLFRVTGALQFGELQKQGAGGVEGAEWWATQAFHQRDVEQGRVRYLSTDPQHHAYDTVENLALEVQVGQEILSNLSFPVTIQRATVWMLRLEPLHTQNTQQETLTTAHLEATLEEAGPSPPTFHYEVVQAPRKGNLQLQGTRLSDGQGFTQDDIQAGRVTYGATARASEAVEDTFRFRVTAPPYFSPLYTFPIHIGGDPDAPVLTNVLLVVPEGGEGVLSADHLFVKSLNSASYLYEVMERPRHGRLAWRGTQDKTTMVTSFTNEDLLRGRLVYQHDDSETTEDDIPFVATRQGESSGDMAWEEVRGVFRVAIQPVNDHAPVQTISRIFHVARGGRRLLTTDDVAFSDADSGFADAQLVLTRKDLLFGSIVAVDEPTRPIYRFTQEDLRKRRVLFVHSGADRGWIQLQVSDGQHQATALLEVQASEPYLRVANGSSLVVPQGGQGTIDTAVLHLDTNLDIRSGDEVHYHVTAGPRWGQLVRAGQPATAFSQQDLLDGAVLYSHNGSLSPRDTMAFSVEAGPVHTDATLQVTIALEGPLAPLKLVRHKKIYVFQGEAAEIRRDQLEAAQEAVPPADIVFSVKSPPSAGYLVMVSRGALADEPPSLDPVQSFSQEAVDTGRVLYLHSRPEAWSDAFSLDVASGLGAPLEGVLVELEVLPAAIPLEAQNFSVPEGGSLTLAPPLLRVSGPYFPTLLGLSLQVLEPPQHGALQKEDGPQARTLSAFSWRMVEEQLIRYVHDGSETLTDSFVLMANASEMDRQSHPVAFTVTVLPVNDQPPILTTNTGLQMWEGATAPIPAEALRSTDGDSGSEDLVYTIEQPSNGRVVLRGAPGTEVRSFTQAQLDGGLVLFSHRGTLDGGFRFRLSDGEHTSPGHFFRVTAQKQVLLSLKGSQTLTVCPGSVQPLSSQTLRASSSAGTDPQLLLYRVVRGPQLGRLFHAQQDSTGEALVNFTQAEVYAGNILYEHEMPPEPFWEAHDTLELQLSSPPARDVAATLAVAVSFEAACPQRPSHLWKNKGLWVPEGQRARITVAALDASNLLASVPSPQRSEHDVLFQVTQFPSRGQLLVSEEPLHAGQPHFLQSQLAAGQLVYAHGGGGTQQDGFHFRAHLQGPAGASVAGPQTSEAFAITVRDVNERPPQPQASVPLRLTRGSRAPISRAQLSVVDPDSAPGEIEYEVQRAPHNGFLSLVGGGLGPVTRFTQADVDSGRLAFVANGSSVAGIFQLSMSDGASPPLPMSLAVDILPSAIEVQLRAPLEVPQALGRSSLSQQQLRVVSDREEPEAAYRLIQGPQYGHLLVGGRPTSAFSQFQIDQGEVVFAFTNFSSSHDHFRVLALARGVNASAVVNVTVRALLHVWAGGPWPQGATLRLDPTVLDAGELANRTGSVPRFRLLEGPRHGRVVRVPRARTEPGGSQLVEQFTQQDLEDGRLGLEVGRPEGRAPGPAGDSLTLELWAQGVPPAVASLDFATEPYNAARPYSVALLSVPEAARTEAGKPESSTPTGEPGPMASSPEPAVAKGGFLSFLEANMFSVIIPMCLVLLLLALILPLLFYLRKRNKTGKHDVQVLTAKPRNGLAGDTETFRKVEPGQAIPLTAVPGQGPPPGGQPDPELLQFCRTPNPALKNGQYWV

- binding [1]: binds
B1: ch763IgG1, chimeric 763 HC and LC in IgG1 format (antibody, V domains shown)
VH: QIQLVQSGPELKKPGETVKISCKASGYTFTDYSMHWVKKTPGKGLKWLGWINTATGEPTYADDFKGRFAISLETSARTVYLQINNLRNEDTATYFCFSYYDYWGQGTTLTVSA
VL: DIKLSQSPSILSVTPGETVSLSCRASQTIYKNLHWYQQKSHRSPRLLIKYGSDSISGIPSRFTGSGSGTDYTLNINSVKPEDEGIYYCLQGYSTPWTFGGGTKLEIKR

- binding [2]: binds
- binding [3]: binds
- binding [4]: binds
- binding [5]: binds
- binding [6]: binds
- binding [7]: binds
- binding [8]: binds
- binding [9]: binds
- binding [10]: binds
- binding [11]: binds
- binding [1]: binds
- binding [12]: binds
- binding [13]: binds
- binding [14]: binds
- binding [15]: binds
- binding [16]: binds
- binding [17]: binds
- binding [18]: binds
- binding [19]: binds
- binding [20]: binds
- binding [21]: binds
- binding [22]: binds
B2: murine anti-CSPG4 antibody 763.74 (antibody, V domains shown)
VH: QIQLVQSGPELKKPGETVKISCKASGYTFTDYSMHWVKKTPGKGLKWLGWINTATGEPTYADDFKGRFAISLETSARTVYLQINNLRNEDTATYFCFSYYDYWGQGTTLTVS
VL: DIKLSQSPSILSVTPGETVSLSCRASQTIYKNLHWYQQKSHRSPRLLIKYGSDSISGIPSRFTGSGSGTDYTLNINSVKPEDEGIYYCLQGYSTPWTFGGGTKLEIK

Reference: patent US20170342151A1
